This assay is described as follows: qHTS Assay to Find Inhibitors of Chronic Active B-Cell Receptor Signaling. To be noted: ABC-DLBCL IkBa-CBG/CBR reporter, luminescence ratio (green luciferase fused to IkBa over red control in TMD8 lymphoma cells), 4 h. In short, it runs like this: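 Cell line TMD8 (human ABC DLBCL), stably expressing tet-inducible CBG68-IkBa fusion and CBR; IMDM/0.5% FBS; cpd up to 46 uM; dox induction, 4 h, 37C/5% CO2; dual luminescence; green/red ratio; MG132 control.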
On the technique in general: Quantitative high-throughput screening tests each substance at several concentrations.

Setting [1] is: measured here: CBR red luminescence, cell number.
Setting [2] is: measured here: IkBa-CBG green luminescence.

Data on 43 compounds can be found in PubChem BioAssay AID493014 (National Center for Advancing Translational Sciences (NCATS), 2011).

The term AC50 denotes the concentration giving half of the maximal activity seen.

Some of the results follow. These are further read-outs of the screen, such as a control signal, another cell line or another target. No call is given for them. Compounds called inactive in the main read-out are mostly missing here. Words in brackets tell the shape of the fitted curve; partial curves, single points and poor fits give uncertain potencies.

Take `Cc1ccc(Nc2nnc(-c3ccccc3N)o2)cc1C`: the half-maximal activity concentration (AC50) under setting [1] was 5.62 µM [falling, full curve].
The same measure, in the same setting: under `COc1ccc(NC(=O)C2C3C=CC(C3)C2C(=O)O)cc1` (centres undefined) stands 3.98 µM [rising, full curve, poor fit]; under `COc1ccc2c(c1)[nH]c(=O)c1sc3ccccc3c12`, 3.98 µM [falling, full curve, poor fit].
The same measure, in the same setting: next, `O=C(NCc1ccccc1)Oc1cccc(Cl)c1`: 2.59 µM [rising, full curve, poor fit].
In the case of `Cc1nc2ccc(NC(=O)N3CCCCC3)cc2nc1C`, the AC50 under setting [1] was 8.2 µM [falling, partial curve].
Turning to `Cc1[nH]nc(SCC(=O)N2CCC(C)CC2)c1[N+](=O)[O-]`, the AC50 under setting [1] is 11.6 µM [falling, single point].
`N#C/C(=N/Nc1ccc(OC(F)(F)F)cc1)C(N)=S`: under setting [1], the AC50 was 6.31 µM [falling, partial curve].
Still for that read-out and setting: next, `Cc1ccc2nsnc2c1S(=O)(=O)NCCc1c(C)[nH]c2ccc(F)cc12`: 2.91 µM [rising, single point]; `Cc1ccc(S(=O)(=O)NCCNC(=O)c2ccccc2)cc1`: 10 µM [rising, partial curve].
Same read-out and setting: next, `O=C(C1CCC(=O)N(C2CCCC2)C1)N1CCN(c2ccc(Cl)cc2)CC1` (centres undefined): 14.1 µM [falling, single point].
Still for that read-out and setting: under `CC(=O)Cc1nsc(NC(=O)c2cc(-c3cccc(C(F)(F)F)c3)oc2C)n1` stands 2.91 µM [rising, full curve]; under `COc1cc(/C=N/n2c(COc3ccccc3)n[nH]c2=S)cc(OC)c1OC(C)=O`, 35.5 µM [rising, single point].
Turning to `COc1ccc2nc(SCC(=O)NCc3ccc(S(N)(=O)=O)cc3)[nH]c2c1`, under setting [1], the AC50 was 10 µM [rising, partial curve, poor fit].
`CCOC(=O)c1cccc(NC(=O)/C=C/c2ccc3c(c2)OCO3)c1`: the half-maximal activity concentration (AC50) under setting [1] was 16.4 µM [falling, partial curve].
With `O=C(C1CCCO1)N1CCN(Cc2c(O)ccc3ccccc23)CC1` (centres undefined), under setting [1], the AC50 is 11.6 µM [falling, partial curve, poor fit].
For `Cc1noc(C)c1C(=O)Nc1nc2ccc(S(C)(=O)=O)cc2s1`, the concentration at half-maximal activity (AC50) under setting [1] was 5.62 µM [falling, partial curve].
The same measure, in the same setting: next, `C[n+]1c2n(c3ccccc31)N=C(c1cc(C(C)(C)C)c(O)c(C(C)(C)C)c1)CS2`: 11.2 µM [falling, partial curve].
In the case of `N#Cc1c[nH]n2c(=O)c3c(nc12)CCC3`, under setting [1], the half-maximal activity concentration (AC50) was 35.5 µM [rising, single point].
On the same count and under the same terms, next, `CCOCCOC(=O)NCCCCCCNC(=O)OCCOCC`: 31.6 µM [rising, single point].
As to `N/C(=N\c1nc2ccccc2o1)NC(=O)c1cccc(Cl)c1`, the concentration at half-maximal activity (AC50) under setting [1] was 10 µM [rising, partial curve, poor fit].
Same read-out and setting: next, `O=C(O)CCCCCNC(=O)c1cccc(Br)c1`: 3.16 µM [falling, full curve]; `CCN(C[C@H]1N[C@@](CC)(C(=O)OC)[C@H]2C(=O)N(Cc3ccccc3)C(=O)[C@@H]12)C(C)=O`: 29.1 µM [rising, single point].
As for `Cc1cccc(NC(=S)N2CCCCCC2)c1C`, the AC50 under setting [1] was 0.891 µM [falling, full curve].
On the same count and under the same terms, next, `Cn1cccc1/C=C1/SC(=O)N(CC(=O)N2CCCC2)C1=O`: 35.5 µM [rising, single point]; `Cc1cc(C(=O)Nc2ccc(Br)cc2)cs1`: 17.8 µM [falling, single point]; `O=C(CN1CCOCC1)NCCNS(=O)(=O)c1ccccc1`: 0.708 µM [rising, full curve, poor fit].
In the case of `Cc1ccc(C(OCC(O)CNC(C)c2ccccc2)c2ccccc2)cc1` (centres undefined), the AC50 under setting [1] is 35.5 µM [falling, single point].
Same read-out and setting: next, `Cc1nc(NS(=O)(=O)c2cccs2)c2c3c(sc2n1)CCC3`: 22.4 µM [falling, partial curve, poor fit].
On the same count and under the same terms, next, `CCCCNC(=S)N1CCn2cccc2C1c1ccccc1` (centres undefined): 35.5 µM [falling, single point].
Still for that read-out and setting: under `CC(=O)c1sc(NC(=O)c2oc3ccc(F)cc3c2C)nc1C` stands 9.2 µM [falling, single point]; under `CC1(C)O[C@@H]1COc1c2ccoc2cc2oc(=O)ccc12`, 13 µM [rising, single point]; under `Nc1nc(Nc2ccc(Cl)cc2)nc(NCCO)c1[N+](=O)[O-]`, 31.6 µM [rising, single point].
As to `Cc1[nH]c2ccccc2c1C(=O)C(=O)NC1CC1`, the AC50 under setting [1] was 22.4 µM [falling, single point].
As to `CC(=O)Nc1ccc(S(=O)(=O)Nc2c(NC3CCCCC3)c3ccccc3oc2=O)cc1`, the concentration at half-maximal activity (AC50) under setting [1] was 7.94 µM [falling, partial curve, poor fit].
Consider `O=C1COc2ccc(C(=O)NCc3ccco3)cc2N1`, for which the concentration at half-maximal activity (AC50) under setting [1] was 6.51 µM [falling, single point].
For `COc1ccc(C(NC(=O)c2cc(OC)ccc2OC)c2ccccc2)cc1` (centres undefined), the concentration at half-maximal activity (AC50) under setting [1] was 35.5 µM [falling, single point].
On to `COc1cc(OC)c(C2Nc3cccc4cccc(c34)N2)c(OC)c1`, for which the AC50 under setting [2] was 3.98 µM [falling, partial curve, poor fit].
On to `O=C(NCc1ccccc1)NC(=O)c1ccccc1`, for which the concentration at half-maximal activity (AC50) under setting [1] is 0.708 µM [rising, full curve, poor fit].
`Cc1ccc(O)c(-c2cc(C(=O)NCc3ccccc3)[nH]n2)c1`: the concentration at half-maximal activity (AC50) under setting [1] was 1.46 µM [rising, partial curve, poor fit].
With `C/C(=N\NC(N)=S)c1cc(-c2ccccc2)c(-c2ccccc2)s1`, the AC50 by setting is: under setting [1], 8.91 µM [rising, partial curve]; under setting [2], 12.6 µM [falling, partial curve].
With `CC(=O)N1CCN(c2ccc(NCc3ccc(F)cc3)cc2)CC1`, the half-maximal activity concentration (AC50) under setting [1] is 14.1 µM [rising, partial curve, poor fit].
As for `COc1ccc(/C=C/C(=O)c2ccc(OC)cc2O)cc1`, the AC50 under setting [1] was 16.4 µM [falling, partial curve, poor fit].
As to `COc1ccc(/C=N/Nc2ncnc3sc(C)c(C)c23)cc1`, the AC50 under setting [2] is 29.1 µM [falling, single point].
